In publication PMC8079276:

B1: Tnpo1 (protein, UniProt Q8BFY9 1-898)
chain: MVWDRQTKMEYEWKPDEQGLQQILQLLKESQSPDTTIQRTVQQKLEQLNQYPDFNNYLIFVLTKLKSEDEPTRSLSGLILKNNVKAHFQNFPNGVTDFIKSECLNNIGDSSPLIRATVGILITTIASKGELQNWPDLLPKLCSLLDSEDYNTCEGAFGALQKICEDSAEILDSDVLDRPLNIMIPKFLQFFKHSSPKIRSHAVACVNQFIISRTQALMLHIDSFIENLFALAGDEEAEVRKNVCRALVMLLEVRMDRLLPHMHNIVEYMLQRTQDQDENVALEACEFWLTLAEQPICKDVLVRHLPKLIPVLVNGMKYSDIDIILLKGDVEEDETIPDSEQDIRPRFHRSRTVAQQHEEDGIEEEDDDDDEIDDDDTISDWNLRKCSAAALDVLANVYRDELLPHILPLLKELLFHHEWVVKESGILVLGAIAEGCMQGMIPYLPELIPHLIQCLSDKKALVRSITCWTLSRYAHWVVSQPPDTYLKPLMTELLKRILDSNKRVQEAACSAFATLEEEACTELVPYLAYILDTLVFAFSKYQHKNLLILYDAIGTLADSVGHHLNKPEYIQMLMPPLIQKWNMLKDEDKDLFPLLECLSSVATALQSGFLPYCEPVYQRCVNLVQKTLAQAMLNNAQPEQYEAPDKDFMIVALDLLSGLAEGLGGNIEQLVARSNILTLMYQCMQDKMPEVRQSSFALLGDLTKACFQHVKPCIADFMPILGTNLNPEFISVCNNATWAIGEISIQMGIEMQPYIPMVLHQLVEIINRPNTPKTLLENTAITIGRLGYVCPQEVAPMLQQFIRPWCTSLRNIRDNEEKDSAFRGICTMISVNPSGVIQDFIFFCDAVASWINPKDDLRDMFCKILHGFKNQVGDENWRRFSDQFPLPLKERLAAFYGV
B2: Cyr61 (protein, UniProt P18406 25-379)
chain: TCPAACHCPLEAPKCAPGVGLVRDGCGCCKVCAKQLNEDCSKTQPCDHTKGLECNFGASSTALKGICRAQSEGRPCEYNSRIYQNGESFQPNCKHQCTCIDGAVGCIPLCPQELSLPNLGCPNPRLVKVSGQCCEEWVCDEDSIKDSLDDQDDLLGLDASEVELTRNNELIAIGKGSSLKRLPVFGTEPRVLFNPLHAHGQKCIVQTTSWSQCSKSCGTGISTRVTNDNPECRLVKETRICEVRPCGQPVYSSLKKGKKCSKTKKSPEPVRFTYAGCSSVKKYRPKYCGSCVDGRCCTPLQTRTVKMRFRCEDGEMFSKNVMMIQSCKCNYNCPHPNEASFRLYSLFNDIHKFRD
B3: Starch-binding domain-containing protein 1 (protein, UniProt Q8C7E7 1-338)
chain: MGAVWSALLVGGGLAGALILWLLRGDSGAPGKDGVAEPPQKGAPPGEAAAPGDGPGGGGSGGLSPEPSDRELVSKAEHLRESNGHLISESKDLGNLPEAQRLQNVGADWVNAREFVPVGKIPDTHSRADSEAARNQSPGSHGGEWRLPKGQETAVKVAGSVAAKLPSSSLLVDRAKAVSQDQAGHEDWEVVSRHSSWGSVGLGGSLEASRLSLNQRMDDSTNSLVGGRGWEVDGKVASLKPQQVSIQFQVHYTTNTDVQFIAVTGDHESLGRWNTYIPLHYCKDGLWSHSVFLPADTVVEWKFVLVENKEVTRWEECSNRFLQTGHEDKVVHGWWGIH
B4: Yars (protein, UniProt Q91WQ3 1-528)
chain: MGDAPSPEEKLHLITRNLQEVLGEEKLKEILKERELKVYWGTATTGKPHVAYFVPMSKIADFLKAGCEVTILFADLHAYLDNMKAPWELLELRTSYYENVIKAMLESIGVPLEKLKFIKGTDYQLSKEYTLDVYRLSSVVTQHDAKKAGAEVVKQVEHPLLSGLLYPGLQALDEEYLKVDAQFGGVDQRKIFTFAEKYLPALGYSKRVHLMNPMVPGLTGSKMSSSEEESKIDLLDRKEDVKKKLKKAFCEPGNVENNGVLSFIKHVLFPLKSEFVILRDEKWGGNKTYTVYLELEKDFAAEVVHPGDLKNSVEVALNKLLDPIREKFNTPALKKLASAAYPDPSKQKPPAKGPAKNSEPEEVIPSRLDIRVGKILSVEKHPDADSLYVEKIDVGEAEPRTVVSGLVQFVPKEELQDRLVVVLCNLKPQKMRGVDSQGMLLCASVEGVSRQVEPLDPPAGSAPGERVFVQGYEKGQPDEELKPKKKVFEKLQADFKISEECIAQWKQTNFMTKLGFVSCKSLKGGNIS

biological target: T1, UDP-N-acetylglucosamine-peptide N-acetylglucosaminyltransferase (mouse (endogenous in MEFs)) (UniProt Q8CGY8); test: affinity purification with mass spectrometry; endogenous OGT immunoprecipitated (antibody AL24, protein G magnetic beads, TCL buffer: 50 mM Tris HCl, 150 mM NaCl, pH 7.5, 1% NP-40, 2 mM EDTA) from a 1:1:1 mix of SILAC-labelled lysates of WT, H2O2-treated (2.5 mM, 1.5 h) and OGT-null MEFs, precleared with rabbit IgG; in-gel trypsin digestion, LC-MS/MS; interactor if log2 WT or H2O2/null >=1 in 2 or more replicates
T1 sequence: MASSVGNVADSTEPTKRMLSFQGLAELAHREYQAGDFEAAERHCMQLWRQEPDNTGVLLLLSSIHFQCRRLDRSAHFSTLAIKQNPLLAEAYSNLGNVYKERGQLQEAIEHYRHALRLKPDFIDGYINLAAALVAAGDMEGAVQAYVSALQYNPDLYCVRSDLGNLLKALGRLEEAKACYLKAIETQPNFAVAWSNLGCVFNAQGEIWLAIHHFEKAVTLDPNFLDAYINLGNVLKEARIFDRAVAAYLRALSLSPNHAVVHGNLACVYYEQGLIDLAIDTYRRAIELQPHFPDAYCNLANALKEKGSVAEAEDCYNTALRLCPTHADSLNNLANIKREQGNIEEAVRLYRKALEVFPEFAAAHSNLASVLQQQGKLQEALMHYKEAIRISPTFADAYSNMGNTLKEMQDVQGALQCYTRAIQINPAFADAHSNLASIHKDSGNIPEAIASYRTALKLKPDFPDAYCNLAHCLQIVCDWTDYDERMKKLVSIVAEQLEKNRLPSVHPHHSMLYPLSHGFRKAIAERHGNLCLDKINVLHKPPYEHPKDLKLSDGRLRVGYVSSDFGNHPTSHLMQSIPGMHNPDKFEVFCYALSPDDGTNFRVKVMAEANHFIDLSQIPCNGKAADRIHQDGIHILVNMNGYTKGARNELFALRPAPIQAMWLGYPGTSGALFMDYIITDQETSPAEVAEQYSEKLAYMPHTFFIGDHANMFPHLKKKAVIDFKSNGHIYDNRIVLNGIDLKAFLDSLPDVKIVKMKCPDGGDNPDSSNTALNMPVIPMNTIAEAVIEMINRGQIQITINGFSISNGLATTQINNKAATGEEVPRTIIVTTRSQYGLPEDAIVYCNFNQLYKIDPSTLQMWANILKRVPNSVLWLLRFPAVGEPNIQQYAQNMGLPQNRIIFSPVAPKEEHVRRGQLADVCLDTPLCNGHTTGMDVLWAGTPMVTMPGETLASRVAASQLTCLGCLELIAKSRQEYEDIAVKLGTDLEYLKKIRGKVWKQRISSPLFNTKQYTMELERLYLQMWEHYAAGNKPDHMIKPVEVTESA

binding, binds:
B1
B2
B3
B4

No constants are given. Whether binding was seen depends on the method and setting. In cells and extracts the contact can be indirect. A yes stands for co-enrichment or nearness to the bait. Other partners may have been found. Where a sequence is shown, tags or fusion partners need not be part of it.
